Assay results reported in PubChem BioAssay (NCATS).
The shares of active, inactive and inconclusive entries below differ from those in the screen. For some of these results: Potencies beside an inconclusive call are fits to weak or partial responses and may not hold up. Active and inactive are the calls of the source. Calls come from the whole dose curve; as a rule, active = well fitted curve in the direction sought with a large enough effect; inconclusive = small, poorly fitted or top-dose-only effect, or another doubt; inactive = no such curve, though single readings can be large; an effect the other way counts as inactive or inconclusive.

Columns and labels:
[1] = Quantitative High-Throughput drug screen in 47 multiple myeloma cell lines against the NCATS MIPE library collection: JIM1_ECACC cell viability assay (AID 1918964; note: potency is the fitted concentration of half-maximal effect); settings: JIM1 myeloma viability, CellTiter-Glo ATP luminescence, 48 h; viability (% of DMSO): at 45.8 µM (top of the series)
Method in brief: (§1)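 qHTS of the MIPE 4.0 collection: 500 myeloma cells/well, 48 h drug exposure at 37C in 5% CO2, then CellTiter-Glo for 5 min at room temperature before luminescence reading.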

[2] = Quantitative High-Throughput drug screen in 47 multiple myeloma cell lines against the NCATS MIPE library collection: KMS12BM_JCRB cell viability assay (AID 1918971); note: nearly all actives have a fitted effect of over 35% in size; note: potency is the fitted concentration of half-maximal effect
Method in brief: (§2)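 Relative luminescence from CellTiter-Glo served as the viability signal, referenced to DMSO-treated (100%) and cell-free medium (0%) controls. Treatment lasted 48 hours at 37C with 500 cells per well.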

[3] = Quantitative High-Throughput drug screen in 47 multiple myeloma cell lines against the NCATS MIPE library collection: KMS12PE_JCRB cell viability assay (AID 1918972); settings: KMS12PE myeloma viability, CellTiter-Glo ATP, 48 h; viability: at 45.8 µM (top of the series); note: nearly all actives have a fitted effect of over 30% in size; note: potency is the fitted concentration of half-maximal effect
Method in brief: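 We plated 500 myeloma cells per well, pinned in MIPE 4.0 compounds, and incubated for 48 hours at 37C. ATP was then quantified with CellTiter-Glo, with DMSO and media-only wells defining 100% and 0%.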

[4] = Quantitative High-Throughput drug screen in 47 multiple myeloma cell lines against the NCATS MIPE library collection: KMS21BM_JCRB cell viability assay (AID 1918974); settings: ATP luminescence, 48 h; viability: at 45.8 µM (top of the series) unless noted; note: potency is the fitted concentration of half-maximal effect
Method in brief: as §1

[5] = Quantitative High-Throughput drug screen in 47 multiple myeloma cell lines against the NCATS MIPE library collection: MOLP8_DSMZ cell viability assay (AID 1918977); settings: MOLP8 myeloma viability, CellTiter-Glo ATP luminescence, 48 h; viability (% of control): at 45.8 µM (top of the series); note: nearly all actives have a fitted effect of over 45% in size; note: potency is the fitted concentration of half-maximal effect
Method in brief: (§3)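 Plated at 500 cells per well, myeloma lines received MIPE 4.0 compounds by pin tool. Following 48 h culture at 37 °C, CellTiter-Glo luminescence gave viability relative to DMSO and media-only controls.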

[6] = Quantitative High-Throughput drug screen in 47 multiple myeloma cell lines against the NCATS MIPE library collection: OCIMY1_PLB cell viability assay (AID 1918979); note: nearly all actives have a fitted effect of over 35% in size; note: potency is the fitted concentration of half-maximal effect
Method in brief: as §3

[7] = Quantitative High-Throughput drug screen in 47 multiple myeloma cell lines against the NCATS MIPE library collection: LP1_DSMZ cell viability assay (AID 1918982); note: nearly all actives have a fitted effect of over 35% in size; note: potency is the fitted concentration of half-maximal effect
Method in brief: as §3

[8] = Quantitative High-Throughput drug screen in 47 multiple myeloma cell lines against the NCATS MIPE library collection: H1112_PLB cell viability assay (AID 1918967; note: nearly all actives have a fitted effect of over 30% in size; note: potency is the fitted concentration of half-maximal effect); settings: H1112 myeloma cells viability, ATP luminescence, 48 h; viability: at 45.8 µM (top of the series)
Method in brief: as §1

[9] = Quantitative High-Throughput drug screen in 47 multiple myeloma cell lines against the NCATS MIPE library collection: KMS27_JCRB cell viability assay (AID 1918970); settings: KMS27 myeloma cells, CellTiter-Glo ATP viability, 48 h; viability (% of DMSO): at 45.8 µM (top of the series); note: nearly all actives have a fitted effect of over 30% in size; note: potency is the fitted concentration of half-maximal effect
Method in brief: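 Viability inhibition screen, 48 h compound exposure, luminescent ATP read-out.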

[10] = Quantitative High-Throughput drug screen in 47 multiple myeloma cell lines against the NCATS MIPE library collection: KMS20_JCRB cell viability assay (AID 1918973); settings: CellTiter-Glo ATP, 48 h; viability (% of DMSO): at 45.8 µM (top of the series); note: nearly all actives have a fitted effect of over 45% in size; note: potency is the fitted concentration of half-maximal effect
Method in brief: as §1

[11] = Quantitative High-Throughput drug screen in 47 multiple myeloma cell lines against the NCATS MIPE library collection: KMS26_JCRB cell viability assay (AID 1918975); settings: KMS26 myeloma cells viability, CellTiter-Glo ATP, 48 h; viability (% of DMSO): at 45.8 µM (top of the series); note: nearly all actives have a fitted effect of over 45% in size; note: potency is the fitted concentration of half-maximal effect
Method in brief: as §2

[12] = Quantitative High-Throughput drug screen in 47 multiple myeloma cell lines against the NCATS MIPE library collection: MMM1_PLB cell viability assay (AID 1918976); note: potency is the fitted concentration of half-maximal effect; nearly all actives have a fitted effect of over 35% in size
Method in brief: as §3

[13] = Quantitative High-Throughput drug screen in 47 multiple myeloma cell lines against the NCATS MIPE library collection: NCIH929_DSMZ cell viability assay (AID 1918978); note: nearly all actives have a fitted effect of over 35% in size; note: potency is the fitted concentration of half-maximal effect
Method in brief: as §3

[14] = Quantitative High-Throughput drug screen in 47 multiple myeloma cell lines against the NCATS MIPE library collection: MM1S_ATCC cell viability assay (AID 1918980); note: nearly all actives have a fitted effect of over 45% in size; note: potency is the fitted concentration of half-maximal effect
Method in brief: as §3

[15] = Quantitative High-Throughput drug screen in 47 multiple myeloma cell lines against the NCATS MIPE library collection: MM1R_ATCC cell viability assay (AID 1918981); note: nearly all actives have a fitted effect of over 35% in size; note: potency is the fitted concentration of half-maximal effect
Method in brief: as §3

[16] = Quantitative High-Throughput drug screen in 47 multiple myeloma cell lines against the NCATS MIPE library collection: KMS28PE_JCRB cell viability assay (AID 1918983); note: nearly all actives have a fitted effect of over 35% in size; note: potency is the fitted concentration of half-maximal effect
Method in brief: as §3

[17] = Quantitative High-Throughput drug screen in 47 multiple myeloma cell lines against the NCATS MIPE library collection: Karpas25_ECACC cell viability assay (AID 1918968; note: nearly all actives have a fitted effect of over 35% in size); settings: Karpas25 myeloma viability, CellTiter-Glo ATP, 48 h; viability (% of control): at 45.8 µM (top of the series)
Method in brief: as §1

[18] = Quantitative High-Throughput drug screen in 47 multiple myeloma cell lines against the NCATS MIPE library collection: JJN3_DSMZ cell viability assay (AID 1918966; note: potency is the fitted concentration of half-maximal effect; nearly all actives have a fitted effect of over 50% in size); settings: JJN3 myeloma cells viability, CellTiter-Glo ATP, 48 h; viability, % of DMSO: at 45.8 µM (top of the series)
Method in brief: as §1

CC(=O)SCC(Cc1ccccc1)C(=O)NCC(=O)OCc1ccccc1 (configuration not stated)
inconclusive: Potency [4] 0.296 µM [cytotoxic, full curve, poor fit] | Potency [5] 1.32 µM [cytotoxic, full curve] | Potency [6] 18.7 µM [cytotoxic, partial curve, poor fit] | Potency [7] 2.64 µM [cytotoxic, full curve]
active: Potency [1] 2.96 µM | Potency [2] 2.35 µM | Potency [3] 1.66 µM

Oc1ccc(-c2nc(-c3ccc(F)cc3)c(-c3ccncc3)[nH]2)cc1
active: Potency [8] 8.33 µM | Potency [14] 16.6 µM
inconclusive: Potency [1] 0.0332 µM [rising, full curve, poor fit] | Potency [2] 33.2 µM [cytotoxic, single point] | Potency [3] 0.935 µM [rising, partial curve] | Potency [10] 37.2 µM [cytotoxic, single point] | Potency [4] 0.003 µM [rising, full curve, poor fit] | Potency [11] 23.5 µM [cytotoxic, partial curve, poor fit] | Potency [12] 20.9 µM [cytotoxic, partial curve, poor fit] | Potency [5] 18.7 µM [cytotoxic, partial curve, poor fit] | Potency [13] 18.7 µM [cytotoxic, partial curve] | Potency [6] 0.0033 µM [rising, full curve, poor fit] | Potency [15] 20.9 µM [cytotoxic, partial curve, poor fit] | Potency [7] 23.5 µM [cytotoxic, single point] | Potency [16] 33.2 µM [cytotoxic, single point]
inactive: Potency [9]

CCCCCCCCCCCCCC(=O)N[C@H](CO)[C@H](O)c1ccc([N+](=O)[O-])cc1
active: Potency [1] 14.8 µM | Potency [10] 23.5 µM
inconclusive: Potency [8] 20.9 µM [cytotoxic, single point] | Potency [11] 23.5 µM [cytotoxic, partial curve, poor fit] | Potency [12] 20.9 µM [cytotoxic, partial curve, poor fit] | Potency [5] 37.2 µM [cytotoxic, single point] | Potency [14] 20.9 µM [cytotoxic, single point] | Potency [7] 29.6 µM [cytotoxic, single point]
inactive: Potency [6]

Nc1nc2[nH]cc(CCc3ccc(C(=O)N[C@@H](CCC(=O)O)C(=O)O)cc3)c2c(=O)[nH]1
inactive: Potency [17] | Potency [10] | Potency [11] | Potency [6]
inconclusive: Potency [1] 5.9 µM [cytotoxic, full curve, poor fit] | Potency [4] 0.0372 µM [cytotoxic, full curve, poor fit] | Potency [5] 3.72 µM [cytotoxic, partial curve, poor fit] | Potency [14] 11.8 µM [cytotoxic, partial curve, poor fit]
active: Potency [3] 1.32 µM

CCN1C[C@H](C)n2c(c(O)c3c(=O)n(Cc4ccc(F)c(Cl)c4)nc(C(=O)NC)c32)C1=O
inconclusive: Potency [2] 0.0187 µM [cytotoxic, full curve, poor fit] | Potency [10] 0.132 µM [cytotoxic, full curve, poor fit] | Potency [5] 83.3 µM [cytotoxic, partial curve, poor fit] | Potency [7] 0.0012 µM [cytotoxic, full curve, poor fit]
inactive: Potency [1] | Potency [8] | Potency [3] | Potency [4] | Potency [6] | Potency [14]
active: Potency [12] 2.64 µM | Potency [15] 3.32 µM

CNC(=O)c1cc(COc2nnc(Nc3ccc(Cl)cc3)c3ccoc23)ccn1
active: Potency [18] 29.6 µM
inconclusive: Potency [4] 33.2 µM [rising, partial curve] | Potency [12] 20.9 µM [cytotoxic, partial curve, poor fit] | Potency [5] 20.9 µM [cytotoxic, partial curve, poor fit] | Potency [15] 33.2 µM [cytotoxic, single point] | Potency [7] 20.9 µM [cytotoxic, partial curve, poor fit] | Potency [16] 33.2 µM [cytotoxic, single point]
inactive: Potency [1] | Potency [10] | Potency [13] | Potency [14]

CO[C@@H](C(=O)N1Cc2[nH]nc(NC(=O)c3ccc(N4CCN(C)CC4)cc3)c2C1)c1ccccc1
active: Potency [1] 16.6 µM | Potency [4] 1.87 µM | Potency [16] 6.62 µM
inconclusive: Potency [8] 20.9 µM [cytotoxic, partial curve] | Potency [2] 0.743 µM [cytotoxic, full curve, poor fit] | Potency [3] 23.5 µM [cytotoxic, partial curve] | Potency [11] 33.2 µM [cytotoxic, partial curve, poor fit] | Potency [12] 0.166 µM [rising, full curve, poor fit] | Potency [5] 1.48 µM [cytotoxic, full curve] | Potency [7] 14.8 µM [cytotoxic, partial curve]

Cc1cnc(C(=O)O)c[n+]1[O-]
inactive: Potency [17] | Potency [2] | Potency [7]
inconclusive: Potency [1] 0.0132 µM [rising, full curve, poor fit] | Potency [10] 11.8 µM [cytotoxic, single point] | Potency [4] 11.8 µM [rising, partial curve] | Potency [11] 8.33 µM [cytotoxic, partial curve, poor fit] | Potency [14] 37.2 µM [cytotoxic, single point]

Nc1ncnc2c1ncn2[C@@H]1O[C@H](CO)C[C@@H]1O
inactive: Potency [8] | Potency [17] | Potency [3] | Potency [6]
inconclusive: Potency [1] 0.935 µM [cytotoxic, full curve, poor fit] | Potency [4] 7.43 µM [rising, full curve] | Potency [5] 33.2 µM [cytotoxic, single point] | Potency [14] 26.4 µM [cytotoxic, partial curve, poor fit] | Potency [7] 26.4 µM [cytotoxic, single point] | Potency [16] 23.5 µM [cytotoxic, single point]

Cc1nc(Nc2n[nH]c3c2CN(C(=O)N[C@H](CN(C)C)c2ccccc2)C3(C)C)c2sccc2n1
active: Potency [12] 4.69 µM | Potency [6] 16.6 µM
inconclusive: Potency [1] 0.418 µM [cytotoxic, full curve] | viability (% of DMSO) [9] 3.06% [cytotoxic] | Potency [3] 1.87 µM [cytotoxic, full curve] | Potency [5] 0.0148 µM [cytotoxic, full curve]

NCCCCCC(=O)O
inconclusive: Potency [3] 0.0021 µM [cytotoxic, full curve, poor fit] | Potency [4] 37.2 µM [rising, single point]
inactive: Potency [1] | Potency [10] | Potency [11] | Potency [5] | Potency [6] | Potency [15] | Potency [16]

CC[C@H]1OC(=O)[C@H](C)[C@@H](O[C@H]2C[C@@](C)(OC)[C@@H](O)[C@H](C)O2)[C@H](C)[C@@H](O[C@@H]2O[C@H](C)C[C@H](N(C)C)[C@H]2O)[C@](C)(O)C[C@H](C)C(=NOCOCCOC)[C@H](C)[C@@H](O)[C@]1(C)O
inconclusive: Potency [2] 26.4 µM [cytotoxic, single point] | Potency [4] 0.0074 µM [cytotoxic, full curve, poor fit] | Potency [11] 52.6 µM [cytotoxic, partial curve, poor fit] | Potency [12] 13.2 µM [cytotoxic, partial curve, poor fit] | Potency [16] 16.6 µM [cytotoxic, partial curve]
inactive: Potency [1] | Potency [9] | Potency [10] | Potency [6]

OC(CN1CCN(c2cccc(Cl)c2)CC1)C(c1ccccc1)c1ccccc1 (configuration not stated)
inactive: Potency [5]
inconclusive: Potency [1] 0.0012 µM [rising, full curve, poor fit] | Potency [8] 18.7 µM [cytotoxic, single point] | Potency [9] 0.0019 µM [rising, full curve, poor fit] | Potency [2] 33.2 µM [cytotoxic, single point] | Potency [3] 0.0042 µM [rising, full curve] | Potency [10] 6.62 µM [cytotoxic, partial curve, poor fit] | Potency [4] 0.003 µM [rising, full curve, poor fit] | Potency [12] 0.0019 µM [rising, full curve, poor fit] | Potency [6] 0.0019 µM [rising, full curve] | Potency [15] 0.0012 µM [rising, full curve, poor fit] | Potency [7] 33.2 µM [cytotoxic, single point] | Potency [16] 0.0019 µM [rising, full curve]

Oc1ccc(-c2ccc(-c3cc(Nc4cccc(CNC5CC5)c4)n[nH]3)cc2)c(O)c1
active: Potency [1] 0.264 µM | Potency [3] 1.05 µM | Potency [4] 0.59 µM | Potency [11] 3.32 µM | Potency [6] 9.35 µM | Potency [15] 2.35 µM

CC[C@@]1(O)C(=O)OCc2c1cc1n(c2=O)Cc2cc3cc(O)ccc3nc2-1
active: Potency [1] 0.235 µM | Potency [9] 0.0187 µM | Potency [10] 0.235 µM | Potency [13] 0.296 µM | Potency [15] 0.0662 µM | Potency [7] 2.64 µM
inconclusive: Potency [4] 33.2 µM [rising, partial curve, poor fit]
